Measurements published in publication PMC11327102.
No constants are given. Whether binding was seen depends on the method and setting. Binding seen in cells or lysates may run through a third protein. Some results given as binding are weak or reduced against the parent protein; the word gives no strength. Sequences can lack the tags named with a protein.

Target: T1, Myc-SCLY (selenocysteine lyase) (not stated (human or mouse cDNA cloned)) (UniProt Q96I15)
T1 sequence: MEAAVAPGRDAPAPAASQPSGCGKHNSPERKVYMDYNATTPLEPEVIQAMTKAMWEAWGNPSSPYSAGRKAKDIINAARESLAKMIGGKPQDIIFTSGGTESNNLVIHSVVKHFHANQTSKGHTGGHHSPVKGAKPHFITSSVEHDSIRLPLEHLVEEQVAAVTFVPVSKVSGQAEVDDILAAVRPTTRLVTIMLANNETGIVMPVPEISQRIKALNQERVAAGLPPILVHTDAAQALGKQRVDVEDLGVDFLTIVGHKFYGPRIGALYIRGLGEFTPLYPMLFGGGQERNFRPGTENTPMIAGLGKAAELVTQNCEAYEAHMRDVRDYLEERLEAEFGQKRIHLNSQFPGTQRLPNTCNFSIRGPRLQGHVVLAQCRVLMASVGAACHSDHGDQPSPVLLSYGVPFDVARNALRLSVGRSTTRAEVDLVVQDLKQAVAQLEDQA
Test: proximity ligation; A549 cells, empty or expressing Myc-SEPHS2 or Myc-SCLY, fixed with 4% formaldehyde, permeabilised with 0.1% Triton X-100; primary antibodies to PRDX6 (rabbit polyclonal) and Myc (mouse monoclonal); Duolink kit; PLA foci counted

- binding: binds
B1: peroxiredoxin 6 (PRDX6), endogenous in A549 cells (protein, UniProt P30041 1-224)
chain: MPGGLLLGDVAPNFEANTTVGRIRFHDFLGDSWGILFSHPRDFTPVCTTELGRAAKLAPEFAKRNVKLIALSIDSVEDHLAWSKDINAYNCEEPTEKLPFPIIDDRNRELAILLGMLDPAEKDEKGMPVTARVVFVFGPDKKLKLSILYPATTGRNFDEILRVVISLQLTAEKRVATPVDWKDGDSVMVLPTIPEEEAKKLFPKGVFTKELPSGKKYLRYTPQP
